# Among all 2,400 compounds or so, about 20 (0.8%) were called active.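 Rule for the calls: active = AC50 no more than ten times the highest tested concentration, or full inhibition at every dose giving a flat fit (cut at about 30 µM in these data); inconclusive = flat fit with activity between 30% and 70%, or poor-quality invalid fit; inactive = AC50 more than ten times the top tested dose.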 Some of the results follow.
# Assay: inhibitors of ADP-Glo detection reagents, dose response, artefact control for GSK-3a inhibitor project, biochemical, luminescence, cell-free, homogeneous (AID 463205);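 note: kinase-free counter-screen against the ADP-Glo detection reagents only; potency is for inhibitors that reduce the luminescence signal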
# Details: 5 uM ADP
row,Compound,AC50
1,Cc1[nH]nc(NCCO)c1[N+](=O)[O-],inactive: > 30 µM
2,COc1cccc(C2CC(=O)Nc3cc(OC)c(OC)c(OC)c32)c1OC (configuration not stated),inactive: > 30 µM
3,CCC(C)Sc1nc2c(c(=O)[nH]1)C(c1cccs1)C1=C(CCCC1=O)N2 (configuration not stated),inactive: > 30 µM
4,COC(=O)c1sc2nc(N3CCCCC3)c3c(c2c1N)CCCC3,inactive: > 30 µM
5,O=C1CC(c2cccs2)CC2=C1C(c1ccccc1)n1ncnc1N2 (configuration not stated),inactive: > 30 µM
6,O=S(=O)(c1cccc(NC(=S)NCc2ccco2)c1)N1CCOCC1,inactive: > 30 µM
7,CCn1c(SCC(=O)Nc2nc3ccc(OC)cc3s2)nnc1-c1ccoc1C,inactive: > 30 µM
8,COC(=O)c1cn(-c2ccccc2)nc1-c1cccnc1,inactive: > 30 µM
9,COc1ccccc1C(=O)O/N=C(\N)c1ccccn1,inactive: > 30 µM
10,CCOC(=O)c1c(NC(=S)N2CCOCC2)sc2c1CCN(C(=O)OCC)C2,inactive: > 30 µM
11,CCOc1cc2c(C#N)c(N3CCCC3)nc(N)c2c(N)n1,inactive: > 30 µM
12,Cc1ccc(-n2nnnc2CSc2nnc(-c3ccc(O)cc3)o2)cc1,inactive: > 30 µM
13,O=C(NCc1c(F)cccc1F)c1cc(COc2c(F)cccc2F)on1,inactive: > 30 µM
14,O=c1[nH]ncc(N/N=C\c2ccncc2)c1Cl,inactive: > 30 µM
15,COCCNc1cc(N)c([N+](=O)[O-])cc1[N+](=O)[O-],inactive: > 30 µM
16,Cc1ccc(SCCc2cc[n+](CC(=O)c3ccccc3)cc2)cc1,inactive: > 30 µM
17,Cc1nnc(SCC(=O)Nc2sc3c(c2C(=O)c2ccccc2)CCCC3)s1,inactive: > 30 µM
18,CCSc1nnc2ccc(-c3cccs3)nn12,inactive: > 30 µM
19,N#Cc1c(Cl)c(Cl)c2nnc(-c3ccc(Br)cc3)n2c1Cl,inactive: > 30 µM
20,COc1ccc(C(=O)NNC(=O)c2ccccn2)cc1,active: 14.9 µM
21,COC(=O)c1nnn(CC(=O)NC(=O)Nc2cccc(Cl)c2C)c1C(=O)OC,inactive: > 30 µM

row,Compound,AC50
1,CCOc1ccc(-c2nnc(N)o2)cc1,inactive: > 30 µM
2,O=C(Nc1cccc(C(=O)N2CCOCC2)c1)c1cccnc1,inactive: > 30 µM
3,Cc1cccc(Nc2ncccc2C(=O)O)c1C,inactive: > 30 µM
4,COc1ccc(CCNC(=O)CSc2nc3[nH]ncc3c(=O)n2-c2ccc(Cl)cc2Cl)cc1OC,inactive: > 30 µM
5,CCc1cc2c(NCc3ccco3)ncnc2s1,inactive: > 30 µM
6,COC(=O)C1C(=O)c2c([nH]c(C(=O)OCCOC(C)C)c2C)CC1C (configuration not stated),inactive: > 30 µM
7,COc1cccc(-c2[nH]nc3c2C(c2ccc(C)o2)C(C#N)=C(N)O3)c1 (configuration not stated),inactive: > 30 µM
8,COc1ccc(NC(=O)Nc2ccccc2F)c(C)c1,inactive: > 30 µM
9,COCCCNc1ncnc2sc3c(c12)CCC(C)C3 (configuration not stated),inactive: > 30 µM
10,Cc1ccnc(NC(=O)Cn2c(=O)oc3cc(S(=O)(=O)N4CCCC4)ccc32)c1,inactive: > 30 µM
11,COc1ccc(CCNc2ncnc3[nH]ncc23)cc1OC,inactive: > 30 µM
12,COc1cccc(C(=O)O/N=C(\N)c2ccccn2)c1,active: 18.9 µM
13,CC(OC(=O)Cc1c[nH]c2ccccc12)C(=O)N(C)c1ccccc1 (configuration not stated),inactive: > 30 µM
14,Oc1cc(O)cc(-c2cc3ccc(O)cc3o2)c1,inactive: > 30 µM
15,CC(=O)Nc1c(C)ccc2nsnc12,inactive: > 30 µM
16,O=C(COc1ccccc1Cc1ccccc1)Nc1cccnc1,inactive: > 30 µM
17,O=C1CCCC2=C1C(c1ccc(O)cc1)c1c(ccc3ccccc13)N2 (configuration not stated),inactive: > 30 µM
18,CC1CCN(Cc2c(O)ccc3c2O/C(=C\c2ccco2)C3=O)CC1,inactive: > 30 µM
19,COc1cc(/C=C2\Oc3ccc(C#Cc4ccc(O)cc4)cc3C2=O)cc(OC)c1,inactive: > 30 µM
20,CCOC(=O)c1nnn(-c2ccc(OC)cc2)c1N,inactive: > 30 µM
21,O=C(Nc1ccccc1F)Nc1ccccc1OC(F)F,inactive: > 30 µM

row,Compound,AC50
1,O=P(COCCOCP(=O)(c1ccccc1)c1ccccc1)(c1ccccc1)c1ccccc1,inactive: > 30 µM
2,CCSc1nc2sc3c(c2c(=O)n1-c1ccccc1C)CCN(C)C3,inactive: > 30 µM
3,Cc1cc(NCc2ccco2)n2c(nc3ccccc32)c1C#N,inactive: > 30 µM
4,Cc1ccc(N2CC(C(=O)Nc3ncc([N+](=O)[O-])s3)CC2=O)cc1 (configuration not stated),inactive: > 30 µM
5,Fc1ccc(/C=N/Nc2nc3ccccc3[nH]2)cc1F,inactive: > 30 µM
6,CSc1nc(SCCN(C)C)c2c3c(sc2n1)COC(C)(C)C3,inactive: > 30 µM
7,COc1ccc(CC(=S)N2CCOCC2)cc1,inactive: > 30 µM
8,CCN(CC)CCCNc1ncnc2scc(-c3ccc(F)cc3)c12,inactive: > 30 µM
9,Cc1c2c(n3c(nc4ccccc43)c1C#N)N(CCN(C)C)CC2,inactive: > 30 µM
10,CC(C)CCNc1nc(N)c([N+](=O)[O-])c(N2CCCCCC2)n1,inactive: > 30 µM
11,CN(C)Cc1c(C(=O)N/N=C/C=C/c2ccccc2)nnn1-c1nonc1N,inactive: > 30 µM
12,COc1cccc(C(=O)O/N=C(\N)c2ccccn2)c1OC,inactive: > 30 µM
13,Clc1ccccc1C1=Nn2c(nnc2-c2ccco2)SC1,inactive: > 30 µM
14,Cc1ccc2c(c1)N(CCC(=O)NC(C)C)C(=O)CO2,inactive: > 30 µM
15,CC1CCc2c(sc(NC(=O)CCCn3cnc([N+](=O)[O-])n3)c2C(N)=O)C1 (configuration not stated),inactive: > 30 µM
16,O=C(CSCc1ccc([N+](=O)[O-])cc1)N/N=C/c1cccnc1,inactive: > 30 µM
17,O=C(CSc1nnc(-c2ccc(O)cc2)o1)Nc1cccc(O)c1,inactive: > 30 µM
18,O=C(c1ccco1)N(Cc1ccc([N+](=O)[O-])cc1)c1ccc(Cl)cc1,inactive: > 30 µM
19,CN(C)CCNc1c2c(c(C#N)c3nc4ccccc4n13)CCCC2,inactive: > 30 µM
20,O=C(NCCCN1CCOCC1)c1cc(Cl)ccc1[N+](=O)[O-],inactive: > 30 µM

# Quoted from the entries so far for reference:
row,Compound,AC50
3,Cc1cc(NCc2ccco2)n2c(nc3ccccc32)c1C#N,inactive: > 30 µM
4,Cc1ccc(N2CC(C(=O)Nc3ncc([N+](=O)[O-])s3)CC2=O)cc1 (configuration not stated),inactive: > 30 µM
